Measured values from patent US20030180295A1, “Angiocidin: a Cys-Ser-Val-Thr-Cys-Gly specific tumor cell adhesion receptor” (Philadelphia Health and Education Corporation, priority 1999, published 2003).
These are yes or no findings as the source states them, for the method shown. Some results given as binding are weak or reduced against the parent protein; the word gives no strength.

Chains of the proteins cited; added tags and fusions are not shown. Lines headed by an entry give the natural chain unless they say otherwise; changes in a name come on top. Residues count along the entry.
UniProt P07996, residues 19-1170: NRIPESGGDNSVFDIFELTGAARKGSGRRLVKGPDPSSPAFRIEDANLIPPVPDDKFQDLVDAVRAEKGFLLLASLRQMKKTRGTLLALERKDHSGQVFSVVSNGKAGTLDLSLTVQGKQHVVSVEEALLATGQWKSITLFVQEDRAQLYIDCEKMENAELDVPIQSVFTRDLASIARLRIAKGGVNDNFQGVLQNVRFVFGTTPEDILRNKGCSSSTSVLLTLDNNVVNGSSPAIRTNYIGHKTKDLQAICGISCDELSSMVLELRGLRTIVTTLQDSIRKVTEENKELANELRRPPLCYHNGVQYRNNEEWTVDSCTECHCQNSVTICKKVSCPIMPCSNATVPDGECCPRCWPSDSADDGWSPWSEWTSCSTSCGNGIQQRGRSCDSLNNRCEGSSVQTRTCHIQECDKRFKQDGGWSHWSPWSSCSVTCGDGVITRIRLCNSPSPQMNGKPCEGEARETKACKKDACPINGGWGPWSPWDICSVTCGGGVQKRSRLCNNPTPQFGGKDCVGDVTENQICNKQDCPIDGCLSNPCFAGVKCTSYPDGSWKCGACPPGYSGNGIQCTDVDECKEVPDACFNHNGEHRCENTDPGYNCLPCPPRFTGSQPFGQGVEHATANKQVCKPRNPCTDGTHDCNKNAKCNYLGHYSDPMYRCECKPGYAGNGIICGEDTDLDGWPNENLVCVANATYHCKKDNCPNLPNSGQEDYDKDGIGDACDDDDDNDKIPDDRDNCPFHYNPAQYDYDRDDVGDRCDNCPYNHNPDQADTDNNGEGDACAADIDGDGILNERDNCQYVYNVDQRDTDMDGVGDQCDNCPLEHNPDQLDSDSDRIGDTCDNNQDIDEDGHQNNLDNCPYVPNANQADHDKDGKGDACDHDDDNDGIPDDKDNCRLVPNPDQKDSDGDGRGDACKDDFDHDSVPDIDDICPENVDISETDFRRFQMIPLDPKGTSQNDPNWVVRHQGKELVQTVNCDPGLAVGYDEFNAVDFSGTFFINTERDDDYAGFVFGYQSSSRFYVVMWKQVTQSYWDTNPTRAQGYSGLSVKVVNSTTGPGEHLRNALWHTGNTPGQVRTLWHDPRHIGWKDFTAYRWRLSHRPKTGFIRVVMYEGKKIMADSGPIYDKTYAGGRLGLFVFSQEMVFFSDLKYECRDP
UniProt P55036: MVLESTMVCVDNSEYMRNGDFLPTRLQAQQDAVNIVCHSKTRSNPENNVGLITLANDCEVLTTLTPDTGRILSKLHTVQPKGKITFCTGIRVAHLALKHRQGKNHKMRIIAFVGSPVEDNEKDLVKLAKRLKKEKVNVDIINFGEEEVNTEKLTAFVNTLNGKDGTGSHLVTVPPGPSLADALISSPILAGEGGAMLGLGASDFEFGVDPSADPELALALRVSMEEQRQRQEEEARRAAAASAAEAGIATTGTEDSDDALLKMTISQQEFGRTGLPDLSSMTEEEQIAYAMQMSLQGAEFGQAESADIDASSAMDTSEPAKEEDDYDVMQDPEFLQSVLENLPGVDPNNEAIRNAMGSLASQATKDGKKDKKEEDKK

Assays:
[1] = biological target: Thrombospondin (TSP-1) (UniProt P07996); assay: optical biosensor, TSP-1 coupled to cuvette, test protein at 10 nm
[2] = biological target: Thrombospondin (TSP-1) (UniProt P07996); assay: optical biosensor, TSP-1 coupled to cuvette (FIG. 42)

amino terminal fragment of angiocidin (Met1-Lys132) (SEQ ID NO: 24) (from UniProt P55036 1-132) (receptor)
binding [1]: binds | binding [2]: binds
